Article PMC7862700
The entries are a selection whose mix differs from that of the whole data set. For some of these results: At the low end of the ranking, values are background and their order means little. Some of the results follow. For some of these results: Construct or isoform of the protein are uncertain.

The chains behind the UniProt entries cited, without tags or fusion partners. Where a name states a change or a piece, a line headed by the entry shows the natural chain unless it says otherwise.
UniProt Q00613: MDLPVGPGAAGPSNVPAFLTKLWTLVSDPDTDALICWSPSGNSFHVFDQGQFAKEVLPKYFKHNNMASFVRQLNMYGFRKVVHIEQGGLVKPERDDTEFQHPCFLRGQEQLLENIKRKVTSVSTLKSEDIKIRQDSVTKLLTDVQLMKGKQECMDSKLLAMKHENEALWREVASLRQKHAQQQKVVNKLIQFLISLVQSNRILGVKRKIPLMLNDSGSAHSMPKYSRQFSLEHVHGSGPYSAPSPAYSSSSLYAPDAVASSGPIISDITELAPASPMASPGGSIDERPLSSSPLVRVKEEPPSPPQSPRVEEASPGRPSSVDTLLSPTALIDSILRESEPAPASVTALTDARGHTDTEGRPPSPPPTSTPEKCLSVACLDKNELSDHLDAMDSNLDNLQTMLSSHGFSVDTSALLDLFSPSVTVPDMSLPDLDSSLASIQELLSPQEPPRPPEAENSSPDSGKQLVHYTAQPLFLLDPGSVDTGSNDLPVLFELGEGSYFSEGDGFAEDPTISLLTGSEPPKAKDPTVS

What was measured:
[1] = target: HSF1 (UniProt Q00613); assay: DAPPL (digital affinity profiling via proximity ligation, sequencing); conditions: 10 mM Tris-HCl pH 7.5, 50 mM NaCl, 1 mM DTT, 4% glycerol, room temperature, 30 min; GST-TFs on glutathione beads, 16-mer random dsDNA library, 0.1% …; high values mean tight binding; double strand, one strand shown; scale: fold enrichment (6-mer frequency, TF over GST control)
[2] = target: T1, ELF2 (UniProt Q15723); assay: as above; conditions: 10 mM Tris-HCl pH 7.5, 50 mM NaCl, 1 mM DTT, 4% glycerol, room temperature, 30 min; GST-TFs on glutathione beads, 16-mer random dsDNA library, 0.1% …; high values mean tight binding; double strand, one strand shown; scale: fold enrichment (6-mer frequency, TF over GST control)
T1 sequence: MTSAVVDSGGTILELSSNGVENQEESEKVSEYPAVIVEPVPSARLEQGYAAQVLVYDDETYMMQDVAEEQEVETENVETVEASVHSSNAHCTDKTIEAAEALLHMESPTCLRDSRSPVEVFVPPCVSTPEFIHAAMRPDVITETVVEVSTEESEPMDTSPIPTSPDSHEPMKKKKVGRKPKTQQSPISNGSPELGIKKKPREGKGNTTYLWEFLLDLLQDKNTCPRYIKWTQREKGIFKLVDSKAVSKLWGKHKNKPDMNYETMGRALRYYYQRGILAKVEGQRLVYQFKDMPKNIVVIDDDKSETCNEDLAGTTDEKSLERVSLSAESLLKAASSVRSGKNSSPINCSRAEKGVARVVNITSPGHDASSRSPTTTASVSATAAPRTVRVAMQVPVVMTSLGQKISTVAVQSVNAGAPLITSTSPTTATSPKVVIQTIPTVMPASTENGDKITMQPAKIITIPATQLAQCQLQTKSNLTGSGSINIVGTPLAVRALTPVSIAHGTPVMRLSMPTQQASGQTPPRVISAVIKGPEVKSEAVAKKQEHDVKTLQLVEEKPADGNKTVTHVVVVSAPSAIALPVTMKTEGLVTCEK

GTGACA
binding signal [1]: 0.558 | binding signal [2]: 0.778

TAGCCA
binding signal [1]: 0.864 | binding signal [2]: 0.796

GCCGTT
binding signal [1]: 0.704 | binding signal [2]: 0.745

GGGCGG
binding signal [1]: 0.313 | binding signal [2]: 0.44

GGTCGA
binding signal [1]: 0.707 | binding signal [2]: 0.696

GACGGT
binding signal [1]: 0.416 | binding signal [2]: 0.443

GAGTGG
binding signal [1]: 0.575 | binding signal [2]: 0.578

GAGCAG
binding signal [1]: 0.511 | binding signal [2]: 0.591

GACTGG
binding signal [1]: 0.658 | binding signal [2]: 0.571

GGCACG
binding signal [1]: 0.711 | binding signal [2]: 0.779

GGAGGC
binding signal [1]: 0.216 | binding signal [2]: 0.239

GGTTGG
binding signal [1]: 0.568 | binding signal [2]: 0.733

GGGACT
binding signal [1]: 0.634 | binding signal [2]: 0.658

GTGCAA
binding signal [1]: 0.764 | binding signal [2]: 0.955

GGGGGT
binding signal [1]: 0.426 | binding signal [2]: 0.493

GTAACG
binding signal [1]: 0.697 | binding signal [2]: 0.926

GAAGAC
binding signal [1]: 0.782 | binding signal [2]: 1

GTAAGG
binding signal [1]: 0.636 | binding signal [2]: 0.735

CAGGTA
binding signal [1]: 0.737 | binding signal [2]: 0.787

AGTCCG
binding signal [1]: 0.419 | binding signal [2]: 0.625

TCGTGA
binding signal [1]: 0.428 | binding signal [2]: 0.309

AGGAGG
binding signal [1]: 0.216 | binding signal [2]: 0.212

GTGGGC
binding signal [1]: 0.517 | binding signal [2]: 0.682

GAGTTT
binding signal [1]: 0.627 | binding signal [2]: 0.622

GAACGC
binding signal [1]: 0.73 | binding signal [2]: 0.733

CAGCAG
binding signal [1]: 0.804 | binding signal [2]: 0.804

TAGGGG
binding signal [1]: 0.867 | binding signal [2]: 0.783

CAGCTG
binding signal [1]: 0.746 | binding signal [2]: 0.79

CAGCGA
binding signal [1]: 0.832 | binding signal [2]: 0.808

GGAGAG
binding signal [1]: 0.266 | binding signal [2]: 0.265

GAGCCA
binding signal [1]: 0.513 | binding signal [2]: 0.57

CAGGGT
binding signal [1]: 0.739 | binding signal [2]: 0.79

CAGGTG
binding signal [1]: 0.474 | binding signal [2]: 0.515

CGCAGG
binding signal [1]: 0.667 | binding signal [2]: 0.838

CCCGTG
binding signal [1]: 0.483 | binding signal [2]: 0.511

AGGGGC
binding signal [1]: 0.635 | binding signal [2]: 0.726

CAAGTG
binding signal [1]: 0.655 | binding signal [2]: 0.715

GGAGAT
binding signal [1]: 0.377 | binding signal [2]: 0.312
